## Results from one PubChem assay

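293T-iDUX4 dual-reporter cells; luminescence of the tet-on Italica luciferase control is read after 24 h. The test concentration is not given here. Percent change in the Italica control signal; more negative values mean stronger inhibition, which points to nonspecific, tet-on or cytotoxic effects.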

Values are in %. Common to all entries: measured here: Italica tet-on control reporter. This is a side read-out of the assay, for part of the compounds, not drawn at random.

compound,activity change (%)
Cc1ccccc1S(=O)(=O)N1CC[C@@H]2[C@H](CO)Nc3ccc(-c4cccc(C#N)c4)cc3[C@@H]21,-54.12
O=C(C[C@@H]1CC[C@@H]2[C@H](COC[C@@H](O)CN2CCC(F)(F)F)O1)N1CCC(Cc2ccccc2)CC1,-16.21
COc1ccc2c3c([nH]c2c1)[C@@H](CO)N(C(=O)NC(C)C)CC31CCN(Cc2ccc(F)cc2)CC1,-63.27
COc1ccc2c3c([nH]c2c1)[C@H](CO)N(Cc1ccccc1F)CC31CN(C(=O)C2CCCC2)C1,-47.85
O=C(NC1CCCCC1)N1CC2(C1)[C@@H](c1ccccc1)[C@@H](CO)N2CC1CCCC1,-7.56
CCCNC(=O)N1CC2(CN(Cc3cccc(F)c3)C2)c2c([nH]c3cc(OC)ccc23)[C@@H]1CO,-8.536
C[C@H](CO)N1C[C@H](C)[C@H](CN(C)S(=O)(=O)c2ccccc2F)OCc2ccccc2-c2c(n(C)c3ccccc23)C1=O,-48.78
CN1c2ccc(C#Cc3cccnc3)cc2[C@H]2[C@H](CCN2S(=O)(=O)c2ccc(F)cc2)[C@H]1CO,-41.48
C[C@H]1CN([C@@H](C)CO)C(=O)c2c(c3ccccc3n2C)-c2ccccc2CO[C@@H]1CN(C)Cc1ccc2c(c1)OCO2,-3.933
O=C(c1cccc(F)c1)N1CCCCN2[C@H](C1)[C@H](c1ccc(-c3ccccc3)cc1)[C@@H]2CO,-4.276
O=C(C[C@@H]1CC[C@@H]2[C@H](COC[C@H](O)CN2C(=O)Nc2ccc(Cl)c(Cl)c2)O1)NCc1ccc(Cl)c(Cl)c1,-20.33
COc1ccccc1NC(=O)N1CCCCN2[C@H](CO)[C@H](c3ccc(-c4ccc(C)cc4)cc3)[C@@H]2C1,-11.53
COc1ccccc1CN(C)C[C@H]1OCc2ccccc2-c2ccccc2C(=O)N([C@@H](C)CO)C[C@H]1C,-0.622
N#C[C@@H]1[C@@H](c2ccccc2C2=CCCC2)[C@H](CO)N1C(=O)NC1CCCCC1,-12.16
O=C(c1ccc2c(c1)OCO2)N1CC(=O)N2[C@H](C1)[C@@H](c1ccc(C#CC3CCCC3)cc1)[C@@H]2CO,-35.97
C[C@H]1CN([C@@H](C)CO)C(=O)c2ccccc2-c2ccccc2CO[C@H]1CN(C)Cc1cccc(F)c1,-49.95
COc1ccc2c3c([nH]c2c1)[C@@H](CO)N(S(=O)(=O)c1cn(C)cn1)CC31CCN(Cc2ccccc2)CC1,-67.34
COc1ccc(NC(=O)N2CCCCN3[C@H](C2)[C@@H](c2ccc(-c4ccccc4F)cc2)[C@@H]3CO)cc1,-50.48
Cc1ccccc1-c1ccc(C2[C@@H]3CN(C(=O)C4CCCCC4)C[C@H]2N3)cc1 (stereo partly specified),-12.45
CN(C)C(=O)c1ccc(-c2ccc3c(c2)[C@H]2[C@H](CCN2C(=O)c2ccc4c(c2)OCO4)[C@@H](CO)N3)cc1,-11.84
COc1ccc2c3c(n(C)c2c1)[C@H](CO)N(S(=O)(=O)c1ccc(C)cc1)CC31CN(S(=O)(=O)c2ccc(C)cc2)C1,-49.96
COc1cccc(-c2ccc3c(c2)[C@@H]2[C@@H](CCN2S(=O)(=O)c2ccc(F)cc2)[C@H](CO)N3C)c1,-51.41
CCCC(=O)Nc1ccc2c(c1)C(=O)N(C)C[C@@H](OC)[C@H](C)CN(Cc1ccc(F)cc1)[C@H](C)CO2,-2.034
O=C(Nc1cccc(F)c1)N1CCCCN2[C@@H](CO)[C@H](c3ccc(C#Cc4cccnc4)cc3)[C@@H]2C1,-11.74
N#C[C@@H]1[C@@H](c2ccccc2C2=CCCCC2)[C@@H](CO)N1S(=O)(=O)c1ccccc1,-10.9
COC(=O)[C@@H]1[C@@H](CO)[C@@H]2Cn3c(ccc(-c4ccccc4)c3=O)[C@@H]2N1Cc1ccccc1F,-5.974
O=C(C[C@H]1CC[C@@H]2[C@H](COC[C@H](O)CN2CCC(F)(F)F)O1)NCc1ccc(Oc2ccccc2)cc1,-18.66
COc1ccc2c3c(n(C)c2c1)[C@@H](CO)N(C(=O)C1CC1)CC31CCN(Cc2cccc(F)c2)CC1,-71.43
N#Cc1cccc(-c2ccc([C@H]3[C@H](CO)N4CCCCN(S(=O)(=O)c5ccccc5)C[C@@H]34)cc2)c1,1.122
COc1ccc2c3c([nH]c2c1)[C@H](CO)N(Cc1ccc(Cl)cc1)CC31CCN(Cc2ccccc2)CC1,-89.69
C/C=C/c1ccc([C@H]2[C@@H](CO)N(CC3CCCC3)C23CN(C(=O)CC2CC2)C3)cc1,-6.688
O=C(C[C@@H]1CC[C@H]2[C@@H](COC[C@@H](O)CN2Cc2cc(F)ccc2F)O1)N[C@@H]1CCN(Cc2ccccc2)C1,-6.473
COc1cc(CN2C[C@@H]3N[C@H](C2)C3c2ccc(/C=C/c3ccccc3)cc2)cc(OC)c1 (stereo partly specified),-97.83
O=C(C1CC1)N1CC2(C1)[C@@H](c1ccccc1)[C@@H](CO)N2CC1CCCC1,-1.305
CN1c2ccc(Br)cc2[C@@H]2[C@@H](CCN2C(=O)CN2CCOCC2)[C@H]1CO,-0.8353
C[C@H](O)C#Cc1ccc([C@@H]2[C@@H](CO)N3CCCCN(S(=O)(=O)Cc4ccccc4)C[C@@H]23)cc1,-24.07
O=C(C[C@@H]1C=C[C@H](NC(=O)Nc2ccccc2F)[C@H](CO)O1)NCc1ccc(-c2ccccc2)cc1,-20.65
COc1ccccc1C#Cc1ccc2c(c1)[C@H]1[C@H](CCN1S(=O)(=O)c1ccc(C)cc1)[C@H](CO)N2,-20.51
COc1ccc2c3c([nH]c2c1)[C@@H](CO)N(S(C)(=O)=O)CC31CCN(CC2CCCC2)CC1,-14.99
O=C(C1CCCC1)N1CC2(C1)[C@@H](c1ccccc1)[C@@H](CO)N2CC1CCCC1,-12.54
O=C(C[C@@H]1CC[C@H]2[C@@H](COC[C@@H](O)CN2C(=O)c2ccc(F)cc2)O1)Nc1ccc(-c2ccccc2)cc1,-5.923
O=S(=O)(N[C@@H]1CC[C@@H](CCn2cc(-c3cccnc3)nn2)O[C@@H]1CO)c1ccc(Cl)cc1,1.94
CCS(=O)(=O)Nc1ccc2c(c1)C(=O)N(C)C[C@@H](OC)[C@H](C)CN(CC1CCCCC1)[C@@H](C)CO2,6.714
C[C@@H]1CN([C@H](C)CO)C(=O)CCCn2nncc2CO[C@@H]1CN(C)Cc1ccc(-c2ccccc2)cc1,-10.77
COc1ccccc1NC(=O)N1C[C@@H]2N[C@H](C1)C2c1ccc(-c2cccc(C#N)c2)cc1 (stereo partly specified),8.814
CO[C@@H]1CN(C)C(=O)c2cc(NC(=O)C3CC3)ccc2OC[C@@H](C)N(Cc2cc(F)ccc2F)C[C@H]1C,4.113
N#Cc1cccc(-c2ccc3c(c2)[C@@H]2[C@@H](CCN2S(=O)(=O)c2ccccc2F)[C@@H](CO)N3)c1,-47.2
COc1cccc(S(=O)(=O)Nc2ccc3c(c2)C(=O)N(C)C[C@H](OC)[C@H](C)CN(Cc2ccccc2F)[C@@H](C)CO3)c1,-15.52
C[C@H](CO)N1C[C@H](C)[C@H](CN(C)Cc2cccnc2)OCc2ccccc2-c2c(n(C)c3ccccc23)C1=O,-8.43
CN1c2ccc(-c3ccc(F)cc3)cc2[C@@H]2[C@@H](CCN2C(=O)Nc2ccc(F)cc2)[C@@H]1CO,-22.3
COc1ccc(C#Cc2ccc([C@H]3[C@H](CO)N4CCCCN(C(=O)Nc5ccccc5F)C[C@@H]34)cc2)cc1,-41.4
COc1cccc(-c2ccc3c(c2)[C@H]2[C@H](CCN2C(=O)c2ccc(F)cc2)[C@H](CO)N3)c1,-51.9
CO[C@@H]1CN(C)C(=O)c2cc(NC(=O)Nc3ccc(Cl)c(Cl)c3)ccc2OC[C@H](C)NC[C@@H]1C,-7.964
COc1ccc(C#Cc2ccc3c(c2)[C@H]2[C@H](CCN2C(=O)CN2CCOCC2)[C@H](CO)N3C)cc1,13.23
COc1ccccc1-c1ccc2c(c1)[C@@H]1[C@@H](CCN1S(=O)(=O)c1cccc(F)c1)[C@H](CO)N2,-89.36
O=C(C[C@@H]1CC[C@H]2[C@@H](COC[C@@H](O)CN2CCC(F)(F)F)O1)N1CCC(Cc2ccccc2)CC1,-9.605
O=C(CC1CC1)N1CC(=O)N2[C@H](CO)[C@H](c3ccc(C#Cc4cccc(F)c4)cc3)[C@H]2C1,-12.32
O=C(Cc1ccccn1)N1CC2(C1)[C@H](c1ccccc1)[C@H](CO)N2Cc1ccccn1,-21.79
C[C@H](CO)N1C[C@H](C)[C@H](CN(C)Cc2ccc(F)cc2)OCc2ccccc2-c2ccccc2C1=O,-12.2
COc1ccc2c3c(n(C)c2c1)[C@@H](CO)NCC31CN(C(=O)c2cccc(F)c2)C1,-9.431
COc1ccc(S(=O)(=O)N2CC[C@@H]3[C@H](CO)Nc4ccc(-c5cccc(C#N)c5)cc4[C@@H]32)cc1,-50.16
COCC(=O)N1CCCCN2[C@H](CO)[C@H](c3ccc(-c4cccc(C)c4)cc3)[C@@H]2C1,-59.46
COc1ccc2c3c(n(C)c2c1)[C@@H](CO)NCC31CCN(S(=O)(=O)c2cccc(C)c2)CC1,-18.84
CCCC(=O)Nc1ccc2c(c1)C(=O)N(C)C[C@H](OC)[C@H](C)CN(Cc1ccc(F)cc1)[C@@H](C)CO2,6.085
O=C(C1CC1)N1CC2(C1)[C@H](c1ccccc1)[C@@H](CO)N2Cc1ccccc1F,3.548
COc1ccc(CN2CC3(CCN(C(=O)C4CCC4)CC3)c3c(n(C)c4cc(OC)ccc34)[C@@H]2CO)cc1,-9.751

For reference, 4 entries once more:

compound	activity change (%)
O=C(C[C@@H]1CC[C@H]2[C@@H](COC[C@@H](O)CN2Cc2cc(F)ccc2F)O1)N[C@@H]1CCN(Cc2ccccc2)C1	-6.473
N#C[C@@H]1[C@@H](c2ccccc2C2=CCCCC2)[C@@H](CO)N1S(=O)(=O)c1ccccc1	-10.9
O=C(c1ccc2c(c1)OCO2)N1CC(=O)N2[C@H](C1)[C@@H](c1ccc(C#CC3CCCC3)cc1)[C@@H]2CO	-35.97
O=C(NC1CCCCC1)N1CC2(C1)[C@@H](c1ccccc1)[C@@H](CO)N2CC1CCCC1	-7.56

From PubChem BioAssay record AID1224904 (Broad Institute, 2016).